In publication PMC11194278:
Results are given in words; binding and its absence hold for the method and conditions named. Binding seen in cells or lysates may run through a third protein. Some entries that bind do so weakly or less than the wild type.

Amino acid sequences for entries named in this document (tags omitted).
UniProt Q96AC1: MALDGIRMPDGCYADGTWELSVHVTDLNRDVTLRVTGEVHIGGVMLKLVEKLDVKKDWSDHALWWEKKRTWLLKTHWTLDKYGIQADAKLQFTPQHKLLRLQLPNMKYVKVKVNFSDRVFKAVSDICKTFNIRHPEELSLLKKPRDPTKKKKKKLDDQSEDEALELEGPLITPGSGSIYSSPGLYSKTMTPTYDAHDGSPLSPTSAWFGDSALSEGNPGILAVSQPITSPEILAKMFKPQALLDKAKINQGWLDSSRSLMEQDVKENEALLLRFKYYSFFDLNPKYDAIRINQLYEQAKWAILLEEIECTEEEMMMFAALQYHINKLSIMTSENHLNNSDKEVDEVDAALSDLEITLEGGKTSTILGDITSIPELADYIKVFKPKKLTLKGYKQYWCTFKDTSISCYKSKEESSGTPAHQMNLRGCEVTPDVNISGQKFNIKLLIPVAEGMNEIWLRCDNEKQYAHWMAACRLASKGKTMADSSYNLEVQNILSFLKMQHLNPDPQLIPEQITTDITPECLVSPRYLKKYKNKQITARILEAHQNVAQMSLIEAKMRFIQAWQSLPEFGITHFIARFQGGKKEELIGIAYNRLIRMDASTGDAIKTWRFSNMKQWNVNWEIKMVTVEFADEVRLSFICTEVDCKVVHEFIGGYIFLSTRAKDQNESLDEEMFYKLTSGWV

Target: FERMT2 (human (endogenous in CAFs)) (UniProt Q96AC1)
Test: co-IP; endogenous proteins in CAF lysate (NP-40 lysis buffer with protease inhibitors); protein A/G magnetic beads with anti-FERMT2, anti-PYCR1 or anti-TGFBR1 antibodies (mouse or rabbit IgG as control), overnight at 4 °C; western blot; also after treatment of CAFs with IEVs-PFD, IEVs-138 or IEVs-PFD/138 (less of the complexes)

Binder	binding
TGFBR1 (receptor, UniProt P36897 34-503) LQCFCHLCTKDNFTCVTDGLCFVSVTETTDKVIHNSMCIAEIDLIPRDRPFVCAPSSKTGSVTTTYCCNQDHCNKIELPTTVKSSPGLGPVELAAVIAGPVCFVCISLMLMVYICHNRTVIHHRVPNEEDPSLDRPFISEGTTLKDLIYDMTTSGSGSGLPLLVQRTIARTIVLQESIGKGRFGEVWRGKWRGEEVAVKIFSSREERSWFREAEIYQTVMLRHENILGFIAADNKDNGTWTQLWLVSDYHEHGSLFDYLNRYTVTVEGMIKLALSTASGLAHLHMEIVGTQGKPAIAHRDLKSKNILVKKNGTCCIADLGLAVRHDSATDTIDIAPNHRVGTKRYMAPEVLDDSINMKHFESFKRADIYAMGLVFWEIARRCSIGGIHEDYQLPYYDLVPSDPSVEEMRKVVCEQKLRPNIPNRWQSCEALRVMAKIMRECWYANGAARLTALRIKKTLSQLSQQEGIKM	binds
PYCR1 (enzyme, UniProt P32322 1-319) MSVGFIGAGQLAFALAKGFTAAGVLAAHKIMASSPDMDLATVSALRKMGVKLTPHNKETVQHSDVLFLAVKPHIIPFILDEIGADIEDRHIVVSCAAGVTISSIEKKLSAFRPAPRVIRCMTNTPVVVREGATVYATGTHAQVEDGRLMEQLLSSVGFCTEVEEDLIDAVTGLSGSGPAYAFTALDALADGGVKMGLPRRLAVRLGAQALLGAAKMLLHSEQHPGQLKDNVSSPGGATIHALHVLESGGFRSLLINAVEASCIRTRELQSMADQEQVSPAAIKKTILDKVKLDSPAGTALSPSGHTKLLPRSLAPAGKD	binds
